Data as given in PubChem BioAssay AID1259308 (NCATS, 2017)
Purpose: 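Genes whose loss raises luciferase production in HEK293 cells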 (primary screen). Cell system: human HEK293 embryonic kidney cells stably expressing firefly luciferase (HEK-CMV-Luc2-Hygro). Knock-down reagent: single siRNA against human genes, 0.8 pmol siRNA per well. Timing: 72 h. Measurement: 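Reporter luminescence and viable-cell signal on separate replicate plates, given as percent of non-targeting control and median/MAD z-scores, plus per-cell luciferase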. Direction: total luciferase, z-score: higher = more reporter protein produced. Call rule: 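An siRNA counts as active if its total luciferase robust z-score exceeds 3; genes with two or more such siRNAs out of three were retested with fresh siRNAs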. Meaning of the calls: active = raised luciferase; inactive = no rise.
In all, the deposit lists about 59,000 reagents; this is a random part of them. Of all reagents, about 1,510 (2.6%) got an active call. 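Calls use total luciferase alone and ignore viability, so some active siRNAs may act by altering cell number.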 Reagents against one gene are numbered here. Further read-outs or replicates are left out here.

total luciferase, z-score, by gene and reagent
TMEM174: #1 5.93 active; #2 -0.491 inactive; #3 -0.463 inactive
POGLUT3: #1 0.0109 inactive; #2 -0.961 inactive; #3 0.0331 inactive
HACD2: #1 -0.887 inactive; #2 1.53 inactive; #3 -0.439 inactive
RCOR2: #1 -0.455 inactive; #2 1.96 inactive; #3 -0.764 inactive
GOLPH3: #1 -0.289 inactive; #2 -0.729 inactive; #3 -0.293 inactive
C22orf42: #1 -1.12 inactive; #2 0.0991 inactive; #3 1.11 inactive
PLCZ1: #1 -0.951 inactive; #2 -0.977 inactive; #3 -0.436 inactive
HRH4: #1 1.03 inactive; #2 2.5 inactive; #3 -0.604 inactive
DEFB115: #1 -0.303 inactive; #2 -1.67 inactive; #3 0.491 inactive
LOC440313: #1 1.01 inactive; #2 0.843 inactive; #3 -0.42 inactive
FILIP1L: #1 0.919 inactive; #2 1.41 inactive; #3 -0.5 inactive

Active calls, of those listed so far:
total luciferase, z-score, by gene and reagent
TMEM174: #1 5.93 active

Further results:
total luciferase, z-score, by gene and reagent
PHB1: #1 -0.32 inactive; #2 -0.611 inactive; #3 -0.536 inactive
NKIRAS1: #1 0.0755 inactive; #2 -0.346 inactive; #3 -0.495 inactive
PPP1R14C: #1 0.381 inactive; #2 -1.37 inactive; #3 1.82 inactive
OR51F1: #1 3.16 active; #2 0.509 inactive; #3 -0.14 inactive
DRD3: #1 0.784 inactive; #2 0.351 inactive; #3 -0.373 inactive
EHHADH: #1 -0.546 inactive; #2 -0.00168 inactive; #3 -1.35 inactive
RBM33: #1 -0.473 inactive; #2 -0.189 inactive; #3 -0.258 inactive
NAV2: #1 2.21 inactive; #2 -0.512 inactive; #3 -0.578 inactive
MIF4GD: #1 0.254 inactive; #2 0.383 inactive; #3 -1.82 inactive
CLXN: #1 0.788 inactive; #2 0.592 inactive; #3 -0.0175 inactive
DUSP28: #1 -0.0696 inactive; #2 0.145 inactive; #3 -0.744 inactive
MTHFR: #1 0.0846 inactive; #2 0.985 inactive; #3 -0.143 inactive
CPTP: #1 0.141 inactive; #2 -0.224 inactive; #3 0.802 inactive
APOM: #1 -0.729 inactive; #2 1.3 inactive; #3 0.207 inactive
